Test results taken from PubChem BioAssay AID1688 (National Center for Advancing Translational Sciences (NCATS), 2009).
Out of some 220,000 compounds screened, about 2,400 (1.1%) were called active. The shares of active, inactive and inconclusive entries below differ from those in the screen. Calls come from the whole dose curve; as a rule, active = well fitted inhibition curve with a large enough effect; inconclusive = small, poorly fitted or top-dose-only effect, or effect the other way; inactive = no such curve, though single readings can be large or run the other way. Potencies of inconclusive entries are doubtful fits and often do not repeat.

assay: qHTS Multiplex Assay to Identify Dual Action Probes in a Cell Model of Huntington: Aggregate Formation (GFP); conditions: PC12 HttQ103-GFP aggregates, Acumen cytometry, 40 h; activity change, negative = inhibition: at 46.1 µM (top of the series) unless noted; note: nearly all actives have a fitted effect of over 60% in size
Method in brief: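 Inducible Q103 Huntingtin exon 1–GFP PC12 line, 1500 cells/well in phenol red free DMEM with 5% equine and 5% calf serum. Tebufenozide 100 nM induced expression; compounds titrated; aggregates quantified by cytometry.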
% is set by controls: 0 for no effect and ±100 for the full control effect; potency is the fitted concentration of half-maximal effect.

SMILES	Potency	activity change, negative = inhibition
COC(=O)c1cccc(NC(=O)CN2CCN(Cc3ccccc3)CC2)c1	inactive	–
COc1ccc(CCN2CN(S(=O)(=O)c3ccccc3)c3nc4ccccc4nc32)cc1OC	inconclusive: 0.562 µM [activator, full curve, poor fit]	–
Cc1ccc(Cl)cc1NC(=O)c1cc2ccccc2cc1O	inconclusive: 6.31 µM [inhibitor, single point]	–
Cc1sc2ncn(CC(=O)NCCCC(=O)N3CCN(c4ncccn4)CC3)c(=O)c2c1C	inconclusive: 14.1 µM [activator, single point]	–
Cc1ccc(-n2ncc3c(=O)[nH]cnc32)c(C)c1	inconclusive: 35.5 µM [inhibitor, single point]	–
COc1ccc(N2C(=O)C(Cl)=C(Nc3ccccc3O)C2=O)cc1	inconclusive: 35.5 µM [activator, single point]	–
CCOC(=O)C(=O)c1c(C)cc2ccccn12	inconclusive: 0.501 µM [activator, full curve, poor fit]	–
COc1ccccc1N=C1SC(C)CN1C(=O)C1CCC1 (stereo not drawn)	inconclusive: 3.16 µM [inhibitor, partial curve, poor fit]	–
O=C(c1cccc(S(=O)(=O)N2CCc3ccccc32)c1)N1CCN(c2ccccn2)CC1	inconclusive: 35.5 µM [inhibitor, single point]	–
CCOc1c(Cl)cc(CNc2ccc(N3CCCC3)cc2)cc1OC	inactive	–
CCN(CC)P(=O)(Nc1ccccc1Br)c1ccc(N(C)C)cc1NC(=O)c1ccco1 (stereo not drawn)	inactive	–
Cc1cc(C)c2nc(SCC(=O)NCCN3C(=O)CSC3=O)cc(C)c2c1	inconclusive: 35.5 µM [activator, single point]	–
CC(/C=C/c1ccc(Cl)o1)=C\C(=O)O	inactive	–
COc1ccccc1NC(=O)CNS(=O)(=O)c1ccccc1	inactive	–
O=C(O)c1ccccc1Sc1c([N+](=O)[O-])cc(C(F)(F)F)cc1[N+](=O)[O-]	inconclusive: 35.5 µM [inhibitor, single point]	–
Cn1c(=O)c2c(nc(N3CCC(C(N)=O)CC3)n2CCSc2nc3ccccc3s2)n(C)c1=O	inactive	–
CCOC(=O)N1CCC2(CC1)C(C#N)=C(N)Oc1n[nH]c(C)c12	inactive	–
CCOC(=O)N1CCC(NC(=O)c2cc(C(=O)NCc3ccc(F)cc3)ccc2CO)CC1	inconclusive: 5.62 µM [inhibitor, single point]	–
Cc1cccc(N(C(=O)c2nsc(Cl)c2Cl)C(C(=O)NC2CCCC2)c2ccc(O)cc2)c1C (stereo not drawn)	inconclusive: 4.47 µM [inhibitor, single point]	–
O=C(Nc1ccccc1)Nc1cccc(C(F)(F)F)c1	active: 22.4 µM	–
COc1ccc(N=c2scc(-c3ccc(S(=O)(=O)N4CCOCC4)cc3)n2CCCO)cc1	active: 12.6 µM	–
CCS(=O)(=O)c1ccc2oc(SCC(=O)NC3CCCC(C)C3C)nc2c1 (stereo not drawn)	inconclusive: 6.31 µM [inhibitor, single point]	–
O=C(COc1ccc(Cl)cc1Cl)NN1C(=O)/C(=C\c2ccc(Cl)cc2)SC1=S	inactive	–

SMILES	Potency	activity change, negative = inhibition
O=C(CSc1c2c(nc3ccccc13)CCC2)N1CCCC1	inconclusive: 3.98 µM [activator, full curve, poor fit]	–
O=[N+]([O-])c1ccc(O)c(/C=N/n2cnc3ccccc32)c1	inconclusive: 14.1 µM [inhibitor, single point]	–
CN(c1ccc(C(=O)Nc2ccc(Cl)cn2)cc1)S(=O)(=O)c1ccccc1	inconclusive: 17.8 µM [inhibitor, single point]	–
O=C1c2ccccc2C(Nc2ccc(Cl)cc2)N1CCN1CCOCC1 (stereo not drawn)	inconclusive: 3.16 µM [activator, single point]	–
COc1ccccc1NC1=CC(=O)CC(c2ccccc2)C1 (stereo not drawn)	inconclusive: 12.6 µM [activator, partial curve]	–
OC[C@@H]1O[C@](CO)(O[C@H]2O[C@H](CO)[C@@H](O)[C@H](O)[C@H]2O)[C@H](O)[C@H]1O	inactive	–
Cn1nc(CC(=O)Nc2ccc(N3CCN(C(=O)OC(C)(C)C)CC3)cc2)c2ccccc2c1=O	active: 3.98 µM	–
COc1cc(/C=C(/C(=O)c2cccs2)c2nc3ccccc3[nH]2)ccc1O	inconclusive: 35.5 µM [inhibitor, single point]	–
Nc1n[nH]c2c1C1(CCCC1)Cc1ccccc1-2	inconclusive: 12.6 µM [inhibitor, single point]	–
CC(C)(c1ccccc1)c1ccc(OCC(O)CNC2CCN(Cc3ccccc3)CC2)cc1 (stereo not drawn)	inconclusive: 14.1 µM [inhibitor, single point]	–
CC(C)(C)c1ccc(CNc2ccc([N+](=O)[O-])cn2)cc1	inconclusive: 15.8 µM [inhibitor, partial curve]	–
CCCOc1ccc(N2C(=O)CC(N(CCC)C(=O)CCC(=O)O)C2=O)cc1 (stereo not drawn)	inconclusive: 5.01 µM [inhibitor, partial curve, poor fit]	–
CN1/C(=C\C(=O)c2cncc(Br)c2)C(C)(C)c2ccccc21	active: 15.8 µM	–
COc1cc(/C=N/NC(=O)CSc2cc(C)c(Br)cc2C)ccc1O	inconclusive: 35.5 µM [inhibitor, partial curve]	–
Cc1nc2sccn2c1P(c1c(C)nc2sccn12)c1c(C)nc2sccn12	–	inactive: -11.9% [at 9.22 µM]
CCCn1c(=O)c(C(=O)Nc2ccccc2)c(O)c2ccccc21	inconclusive: 11.2 µM [inhibitor, partial curve]	–
COC(=O)C(C)N(C(=O)c1ccc(Cl)cc1)c1c(C)cccc1C (stereo not drawn)	–	inactive: 4.44% [at 9.22 µM]
OCCN1CCN(CCOc2ccccc2-c2ccccc2)CC1	inconclusive: 12.6 µM [inhibitor, partial curve]	–
CCC1=C/C(=C/c2sc3ccccc3[n+]2CC)CC(C)(C)C1	inactive	–
O=c1cc(N2CCN(c3cccc(Cl)c3)CC2)[nH]c(=O)n1C1CCCCC1	inconclusive: 4.47 µM [activator, full curve]	–
O=C(CNC(=O)c1ccccc1Cl)N/N=C/c1ccc([N+](=O)[O-])s1	active: 11.2 µM	–
O=C(N/N=C/c1c(O)n(Cc2ccccc2)c(=O)c2ccccc12)c1cccnc1	inconclusive: 22.4 µM [inhibitor, single point]	–
CC(C)(C)NS(=O)(=O)c1ccc(NC(=O)C(Sc2ccccc2)c2ccccc2)cc1 (stereo not drawn)	inconclusive: 28.2 µM [inhibitor, single point]	–

SMILES	Potency	activity change, negative = inhibition
COc1cc2nc(CN(C)Cc3nc4ccccc4c(=O)[nH]3)[nH]c(=O)c2cc1OC	inactive	–
COc1ccccc1N1CCN(C(c2cccs2)C(C)NC(=O)c2cccnc2)CC1 (stereo not drawn)	inconclusive: 3.55 µM [activator, single point]	–
N=c1n(Cc2ccc(Cl)cc2)c2ccccc2n1CC(O)c1ccco1 (stereo not drawn)	inconclusive: 10 µM [inhibitor, partial curve]	–
O=C(O)c1ccc(Nc2ncc([N+](=O)[O-])cc2[N+](=O)[O-])cc1	inactive	–
O=C(OCn1ncc(Br)c(Br)c1=O)c1c(F)cccc1F	inconclusive: 2.82 µM [inhibitor, single point]	–
FC(F)(F)c1ccc(N2CCN(c3cc(-c4ccccc4)nc4ncnn34)CC2)nc1	inconclusive: 4.47 µM [inhibitor, full curve, poor fit]	–
COc1cccc(OC)c1C(=O)Nc1cc(C)nn1-c1nc2ccccc2[nH]1	inconclusive: 11.2 µM [inhibitor, single point]	–
[O-]/[N+](=C/c1ccc(F)cc1)c1ccccc1	inactive	–
Cc1ccc2c(C(=O)CNc3nncs3)c(C)[nH]c2c1	–	inactive: -9.55% [at 9.22 µM]
CCn1c(=NC(=O)c2ccc(S(=O)(=O)N3CCOCC3)cc2)sc2cccc(OC)c21	inconclusive: 2.51 µM [inhibitor, full curve]	–
CCOC(=O)C(=O)NNc1ccc(C)cc1	inconclusive: 3.98 µM [activator, single point]	–
O=C1CC(Sc2nnc(-c3ccccc3O)o2)C(=O)N1c1ccccc1 (stereo not drawn)	inconclusive: 35.5 µM [inhibitor, single point]	–
COc1ccc(N(C)S(=O)(=O)c2cccc(C(=O)Nc3ccc(-n4cnnn4)cc3)c2)cc1	inconclusive: 25.1 µM [inhibitor, single point]	–
COc1cccc(CC(=O)Nc2nc(-c3cccnc3)cs2)c1	inconclusive: 3.98 µM [inhibitor, single point]	–
O=C(COC(=O)Cc1ccc(S(=O)(=O)N2CCOCC2)s1)NCc1ccccc1	inconclusive: 14.1 µM [inhibitor, single point]	–
CN(C(=O)c1ccc2c(c1)C(=O)N(CCC1=CCCCC1)C2=O)C1CCCCC1	inconclusive: 31.6 µM [inhibitor, single point]	–
COc1ccc(NC(=O)CN2CCN(C3c4ccccc4-c4ccccc43)CC2)cc1	inconclusive: 35.5 µM [inhibitor, single point]	–
COc1ccc2nc3c(cc2c1)c(NC(=O)C1CCCO1)nn3CC(C)C (stereo not drawn)	inconclusive: 20 µM [activator, partial curve, poor fit]	–
COc1ccc(NC(=O)N2CCCC2)cc1OC	inactive	–
CCCC(C)c1nnc(NC(=O)CS(=O)(=O)Cc2ccccc2)s1 (stereo not drawn)	inactive	–
O=[N+]([O-])c1ccc(O)c(/C=N/Nc2ccccc2Cl)c1	inconclusive: 35.5 µM [inhibitor, single point]	–
CC(Sc1nnnn1C)C(=O)NC1CCCc2ccccc21 (stereo not drawn)	inconclusive: 44.7 µM [inhibitor, partial curve, poor fit]	–

Taken from the results shown for reference:
SMILES	Potency	activity change, negative = inhibition
CN(C(=O)c1ccc2c(c1)C(=O)N(CCC1=CCCCC1)C2=O)C1CCCCC1	inconclusive: 31.6 µM [inhibitor, single point]	–
COc1ccc(NC(=O)CN2CCN(C3c4ccccc4-c4ccccc43)CC2)cc1	inconclusive: 35.5 µM [inhibitor, single point]	–
COc1ccc2nc3c(cc2c1)c(NC(=O)C1CCCO1)nn3CC(C)C (stereo not drawn)	inconclusive: 20 µM [activator, partial curve, poor fit]	–
COc1ccc(NC(=O)N2CCCC2)cc1OC	inactive	–
